Measured values as given in PMC11996869.
These are yes or no findings as the source states them, for the method shown. For some of these results: Binding seen in cells or lysates may run through a third protein. Some entries that bind do so weakly or less than the wild type. For some of these results: Tags and fused reporters may be left off the sequences shown.

By UniProt entry, the sequences of proteins in these tests, tags left out.
UniProt Q9UM07: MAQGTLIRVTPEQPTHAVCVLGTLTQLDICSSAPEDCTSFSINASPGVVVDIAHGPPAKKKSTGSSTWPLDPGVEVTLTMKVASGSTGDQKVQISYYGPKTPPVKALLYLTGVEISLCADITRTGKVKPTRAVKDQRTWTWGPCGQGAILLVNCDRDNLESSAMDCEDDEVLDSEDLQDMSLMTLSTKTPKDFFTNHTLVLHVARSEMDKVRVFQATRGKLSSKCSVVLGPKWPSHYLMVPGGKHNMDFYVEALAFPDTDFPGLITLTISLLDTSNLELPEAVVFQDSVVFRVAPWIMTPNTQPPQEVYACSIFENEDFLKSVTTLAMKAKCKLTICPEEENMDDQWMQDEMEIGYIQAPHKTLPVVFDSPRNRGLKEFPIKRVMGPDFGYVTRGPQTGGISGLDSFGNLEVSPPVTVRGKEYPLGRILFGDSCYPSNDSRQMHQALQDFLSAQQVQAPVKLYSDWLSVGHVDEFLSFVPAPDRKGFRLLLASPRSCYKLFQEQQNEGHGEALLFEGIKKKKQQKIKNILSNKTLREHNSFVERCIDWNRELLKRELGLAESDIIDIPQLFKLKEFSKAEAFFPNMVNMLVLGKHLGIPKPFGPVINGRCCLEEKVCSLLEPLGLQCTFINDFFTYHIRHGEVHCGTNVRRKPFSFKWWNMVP

How the values were obtained:
[1] = target: T1, HA-tagged TGM2 (transglutaminase 2) (UniProt P21980); assay: co-IP; exogenous HA-tagged TGM2 and Flag-tagged PAD4 in HEK-293T cells; IP of Flag-tagged PAD4 (6H) and of HA-tagged TGM2 (6I)
T1 sequence: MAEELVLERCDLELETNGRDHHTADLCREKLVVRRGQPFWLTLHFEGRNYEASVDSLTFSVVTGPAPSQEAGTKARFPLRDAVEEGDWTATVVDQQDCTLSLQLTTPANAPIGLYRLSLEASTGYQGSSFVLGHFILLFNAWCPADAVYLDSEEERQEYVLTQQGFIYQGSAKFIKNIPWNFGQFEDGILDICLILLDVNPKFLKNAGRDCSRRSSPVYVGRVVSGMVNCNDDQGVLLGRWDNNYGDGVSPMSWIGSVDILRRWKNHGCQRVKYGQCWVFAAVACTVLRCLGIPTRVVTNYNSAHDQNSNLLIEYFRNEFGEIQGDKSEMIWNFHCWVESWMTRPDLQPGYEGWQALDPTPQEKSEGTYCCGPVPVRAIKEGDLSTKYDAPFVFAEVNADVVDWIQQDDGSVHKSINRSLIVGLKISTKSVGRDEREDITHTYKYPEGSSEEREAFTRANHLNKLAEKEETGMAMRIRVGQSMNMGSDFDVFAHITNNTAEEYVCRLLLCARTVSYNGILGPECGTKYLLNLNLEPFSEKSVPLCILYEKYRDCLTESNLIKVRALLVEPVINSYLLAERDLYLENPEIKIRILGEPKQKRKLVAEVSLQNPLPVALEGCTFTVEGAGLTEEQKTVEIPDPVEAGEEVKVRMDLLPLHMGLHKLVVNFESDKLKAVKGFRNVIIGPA

[2] = target: T2, endogenous TGM2 (human (endogenous in HL-60)) (UniProt P21980); assay: co-IP; endogenous PAD4 and TGM2 in HL-60 cells
T2 sequence: T1 sequence

purified TGM2 protein = target: T3, purified TGM2 protein (UniProt P21980); assay: pull-down; purified PAD4 and TGM2 proteins, in vitro; both purified
T3 sequence: T1 sequence

[3] = target: Flag-tagged PAD4 (peptidylarginine deiminase 4) (UniProt Q9UM07); assay: co-IP; exogenous HA-tagged TGM2 and Flag-tagged PAD4 in HEK-293T cells; IP of Flag-tagged PAD4 (6H) and of HA-tagged TGM2 (6I)

“Flag-tagged PAD4 (peptidylarginine deiminase 4) (from UniProt Q9UM07 1-663) (enzyme)” was tested. Which binding [1] did it give?
The binding was “binds”.

For “endogenous PAD4 (from UniProt Q9UM07 1-663) (enzyme)”, which binding [2] is on record?
Its binding is “binds”.

With “purified PAD4 protein (from UniProt Q9UM07 1-663) (enzyme)” as the molecule, how does the binding (purified TGM2 protein) read?
The binding was “binds”.

B1: HA-tagged TGM2 (transglutaminase 2) (enzyme, UniProt P21980 1-687)
chain: T1 sequence
Which binding [3] does the source give for B1 here?
Its binding is “binds”.
